Measured values taken from US20020156245A1.
Results are given in words; binding and its absence hold for the method and conditions named. In cells and extracts the contact can be indirect. Some results given as binding are weak or reduced against the parent protein; the word gives no strength. Sequences can lack the tags named with a protein.

By UniProt entry, the sequences of proteins in these tests, tags left out. Where a name states a change or a piece, a line headed by the entry shows the natural chain unless it says otherwise.
UniProt P97698: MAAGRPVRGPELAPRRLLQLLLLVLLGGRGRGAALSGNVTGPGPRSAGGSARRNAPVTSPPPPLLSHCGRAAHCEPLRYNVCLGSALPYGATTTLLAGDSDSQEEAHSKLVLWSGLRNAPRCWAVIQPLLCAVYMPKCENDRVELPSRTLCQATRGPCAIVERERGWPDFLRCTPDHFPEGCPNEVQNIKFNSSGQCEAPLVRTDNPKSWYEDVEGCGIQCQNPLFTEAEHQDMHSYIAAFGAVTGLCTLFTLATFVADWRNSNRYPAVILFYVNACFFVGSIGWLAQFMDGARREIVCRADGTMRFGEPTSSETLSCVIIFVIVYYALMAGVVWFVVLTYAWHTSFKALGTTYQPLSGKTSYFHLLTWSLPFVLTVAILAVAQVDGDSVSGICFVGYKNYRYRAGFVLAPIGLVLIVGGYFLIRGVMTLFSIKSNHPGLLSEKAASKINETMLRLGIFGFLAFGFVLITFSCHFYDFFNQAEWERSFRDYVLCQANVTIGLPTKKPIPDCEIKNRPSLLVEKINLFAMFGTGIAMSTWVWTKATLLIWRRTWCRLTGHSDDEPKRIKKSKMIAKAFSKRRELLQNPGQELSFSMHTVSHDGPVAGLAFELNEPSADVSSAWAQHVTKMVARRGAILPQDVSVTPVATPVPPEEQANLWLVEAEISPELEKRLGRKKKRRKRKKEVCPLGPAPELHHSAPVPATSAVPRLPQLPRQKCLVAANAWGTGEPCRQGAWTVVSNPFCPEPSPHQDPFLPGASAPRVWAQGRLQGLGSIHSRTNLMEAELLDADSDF

Columns and labels:
[1] = biological target: myc-epitope tagged Smo (SEQ ID NO:15) (Rattus norvegicus (Rat)) (UniProt P97698); experiment: co-immunoprecipitation (IP anti-Flag, blot anti-Myc) from co-transfected 293 cells
[2] = biological target: myc-epitope tagged Smo (SEQ ID NO:15) (Rattus norvegicus (Rat)) (UniProt P97698); experiment: co-immunoprecipitation from co-transfected 293 cells
[3] = biological target: myc-epitope tagged Smo (SEQ ID NO:15) (Rattus norvegicus (Rat)) (UniProt P97698); experiment: summary of the co-immunoprecipitation in Example 1
[4] = biological target: myc-epitope tagged Smo (SEQ ID NO:15) (Rattus norvegicus (Rat)) (UniProt P97698); experiment: co-immunoprecipitation with 9E10 anti-myc or M2 anti-FLAG, western blot

binding [1]: binds | binding [2]: binds | binding [3]: binds | binding [4]: binds
B1: FLAG-epitope tagged Ptch2 (receptor, not shown: small tags and cut ends)
chain: MTRSPPLRELPPSYTPPARTAAPQILAGSLKAPLWLRAYFQGLLFSLGCGIQRHCGKVLFLGLLAFGALALGLRMAIIETNLEQLWVEVGSRVSQELHYTKEKLGEEAAYTSQMLIQTARQEGENILTPEALGLHLQAALTASKVQVSLYGKSWDLNKICYKSGVPLIENGMIEWMIEKLFPCVILTPLDCFWEGAKLQGGSAYLPGRPDIQWTNLDPEQLLEELGPFASLEGFRELLDKAQVGQAYVGRPCLHPDDLHCPPSAPNHHSRQAPNVAHELSGGCHGFSHKFMHWQEELLLGGMARDPQGELLRAEALQSTFLLMSPRQLYEHFRGDYQTHDIGWSEEQASTVLQAWQRRFVQLAQEALPENASQQIHAFSSTTLDDILHAFSEVSAARVVGGYLLMLAYACVTMLRWDCAQSQGSVGLAGVLLVALAVASGLGLCALLGITFNAATTQVLPFLALGIGVDDVFLLAHAFTEALPGTPLQERMGECLQRTGTSVVLTSINNMAAFLMAALVPIPALRAFSLQAAIVVGCTFVAVMLVFPAILSLDLRRRHCQRLDVLCCFSSPCSAQVIQILPQELGDGTVPVGIAHLTATVQAFTHCEASSQHVVTILPPQAHLVPPPSDPLGSELFSPGGSTRDLLGQEEETRQKAACKSLPCARWNLAHFARYQFAPLLLQSHAKAIVLVLFGALLGLSLYGATLVQDGLALTDVVPRGTKEHAFLSAQLRYFSLYEVALVTQGGFDYAHSQRALFDLHQRFSSLKAVLPPPATQAPRTWLHYYRNWLQGIQAAFDQDWASGRITRHSYRNGSEDGALAYKLLIQTGDAQEPLDFSQLTTRKLVDREGLIPPELFYMGLTVWVSSDPLGLAASQANFYPPPPEWLHDKYDTTGENLRIPPAQPLEFAQFPFLLRGLQKTADFVEAIEGARAACAEAGQAGVHAYPSGSPFLFWEQYLGLRRCFLLAVCILLVCTFLVCALLLLNPWTAGLIVLVLAMMTVELFGIMGFLGIKLSAIPVVILVASVGIGVEFTVHVALGFLTTQGSRNLRAAHALEHTFAPVTDGAISTLLGLLMLAGSHFDFIVRYFFAALTVLTLLGLLHGLVLLPVLLSILGPPPEVIQMYKESPEILSPPAPQGGGLRWGASSSLPQSFARVTTSMTVAIHPPPLPGAYIHPAPDEPPWSPAATSSGNLSSRGPGPATG
